Laboratory results: the supplement of paper PMC4604168 (melanoma cell lines)
The list shows a part of the results. Many values rest on one well or one pass, so single values are uncertain.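 The apoptosis fraction was the count of cleaved-PARP antibody-stained nuclei relative to all DNA-stained nuclei, imaged in 1,536-well plates. Screening doses were set so most cells survived, and baseline and induced cleaved-PARP levels vary greatly across cell lines.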

What follows are compounds tested on WM3619 (assay: cleaved PARP positive nuclei fraction relative to DMSO control; melanoma cells; higher = more apoptosis). Details: library dose: low library concentration; 72 h.

| Compound | cleaved PARP positive nuclei fraction [%] |
| --- | --- |
| CC[C@]1(O)C[C@H]2CN(CCc3c([nH]c4ccccc34)[C@@](C(=O)OC)(c3cc4c(cc3OC)N(C=O)[C@H]3[C@@](O)(C(=O)OC)[C@H](OC(C)=O)[C@]5(CC)C=CCN6CC[C@]43[C@@H]65)C2)C1 [vincristine] + COc1ccc(Cl)c(Nc2nc3ccccc3nc2NS(=O)(=O)c2cccc(NC(=O)C(C)(C)N)c2)c1 [XL147] (first compound 0.0001 µM, partner dose 0.8 µM) | 135 |
| Cc1cn(-c2cc(NC(=O)c3ccc(C)c(Nc4nccc(-c5cccnc5)n4)c3)cc(C(F)(F)F)c2)cn1 [nilotinib] + COc1ccc(Cl)c(Nc2nc3ccccc3nc2NS(=O)(=O)c2cccc(NC(=O)C(C)(C)N)c2)c1 [XL147] (first compound 0.2 µM, partner dose 0.8 µM) | 90.2 |
| Cc1cc(Nc2cc(N3CCN(C)CC3)nc(Sc3ccc(NC(=O)C4CC4)cc3)n2)n[nH]1 [Tozasertib] + Nc1nc(F)nc2c1ncn2[C@@H]1O[C@H](CO)[C@@H](O)[C@@H]1O [fludarabine] (first compound 0.006 µM, partner dose 0.2 µM) | 95.3 |
| O=C(/C=C/c1cccnc1)NCCCCC1CCN(C(=O)c2ccccc2)CC1 + CCCS(=O)(=O)Nc1ccc(F)c(C(=O)c2c[nH]c3ncc(Cl)cc23)c1F [PLX4720] (first compound 0.01 µM, partner dose 0.08 µM) | 109 |
| O=C(/C=C/c1cccnc1)NCCCCC1CCN(C(=O)c2ccccc2)CC1 + CC(=O)c1c(C)c2cnc(Nc3ccc(N4CCNCC4)cn3)nc2n(C2CCCC2)c1=O [palbociclib] (first compound 0.01 µM, partner dose 0.04 µM) | 130 |
| CCCCCCCCCCCCCCCCCCOP(=O)([O-])OC1CC[N+](C)(C)CC1 [Perifosine] + CCCCCCCCc1ccc(CCC(N)(CO)CO)cc1 [fingolimod] (first compound 0.4 µM, partner dose 2 µM) | 178 |
| CC[C@]1(O)C[C@H]2CN(CCc3c([nH]c4ccccc34)[C@@](C(=O)OC)(c3cc4c(cc3OC)N(C=O)[C@H]3[C@@](O)(C(=O)OC)[C@H](OC(C)=O)[C@]5(CC)C=CCN6CC[C@]43[C@@H]65)C2)C1 [vincristine] + Nc1ncn([C@H]2C[C@H](O)[C@@H](CO)O2)c(=O)n1 [decitabine] (first compound 0.0001 µM, partner dose 0.1 µM) | 102 |
| O=c1[nH]nc(Sc2ncc([N+](=O)[O-])s2)n1-c1ccc2c(c1)OCCO2 + CC1(C)CCC(c2ccc(Cl)cc2)=C(CN2CCN(c3ccc(C(=O)NS(=O)(=O)c4ccc(N[C@H](CCN5CCOCC5)CSc5ccccc5)c(S(=O)(=O)C(F)(F)F)c4)cc3)CC2)C1 [ABT263] (first compound 0.2 µM, partner dose 0.4 µM) | 146 |
| O=c1[nH]nc(Sc2ncc([N+](=O)[O-])s2)n1-c1ccc2c(c1)OCCO2 + C=C(c1ccc(C(=O)O)cc1)c1cc2c(cc1C)C(C)(C)CCC2(C)C [Bexarotene] (first compound 0.2 µM, partner dose 2 µM) | 113 |
| CC[C@]1(O)C[C@H]2CN(CCc3c([nH]c4ccccc34)[C@@](C(=O)OC)(c3cc4c(cc3OC)N(C=O)[C@H]3[C@@](O)(C(=O)OC)[C@H](OC(C)=O)[C@]5(CC)C=CCN6CC[C@]43[C@@H]65)C2)C1 [vincristine] + COc1ccc(C2=N[C@@H](c3ccc(Cl)cc3)[C@@H](c3ccc(Cl)cc3)N2C(=O)N2CCNC(=O)C2)c(OC(C)C)c1 [Nutlin-3] (first compound 0.0001 µM, partner dose 0.1 µM) | 209 |
| COc1cc([C@@H]2c3cc4c(cc3[C@@H](O[C@@H]3O[C@@H]5CO[C@@H](C)O[C@H]5[C@H](O)[C@H]3O)[C@H]3COC(=O)[C@H]23)OCO4)cc(OC)c1O [etoposide] + C[C@@H](Oc1cc(-c2cnn(C3CCNCC3)c2)cnc1N)c1c(Cl)ccc(F)c1Cl [Crizotinib] (first compound 0.02 µM, partner dose 0.2 µM) | 95.6 |
| CC[C@]1(O)C[C@H]2CN(CCc3c([nH]c4ccccc34)[C@@](C(=O)OC)(c3cc4c(cc3OC)N(C=O)[C@H]3[C@@](O)(C(=O)OC)[C@H](OC(C)=O)[C@]5(CC)C=CCN6CC[C@]43[C@@H]65)C2)C1 [vincristine] + OCc1c[nH]c2ccccc12 [Indole-3-carbinol] (first compound 0.0001 µM, partner dose 0.8 µM) | 206 |
| O=c1[nH]nc(Sc2ncc([N+](=O)[O-])s2)n1-c1ccc2c(c1)OCCO2 + Cn1cnc2c(F)c(Nc3ccc(Br)cc3Cl)c(C(=O)NOCCO)cc21 [selumetinib] (first compound 0.2 µM, partner dose 0.015 µM) | 142 |
| CC[C@]1(O)C[C@H]2CN(CCc3c([nH]c4ccccc34)[C@@](C(=O)OC)(c3cc4c(cc3OC)N(C=O)[C@H]3[C@@](O)(C(=O)OC)[C@H](OC(C)=O)[C@]5(CC)C=CCN6CC[C@]43[C@@H]65)C2)C1 [vincristine] + CS(=O)(=O)c1ccc(C(=O)Nc2ccc(Cl)c(-c3ccccn3)c2)c(Cl)c1 [vismodegib] (first compound 0.0001 µM, partner dose 1 µM) | 168 |
| O=c1[nH]nc(Sc2ncc([N+](=O)[O-])s2)n1-c1ccc2c(c1)OCCO2 + Nc1ccn([C@@H]2O[C@H](CO)[C@@H](O)C2(F)F)c(=O)n1 [gemcitabine] (first compound 0.2 µM, partner dose 0.0004 µM) | 108 |
| CCCCCCCCCCCCCCCCCCOP(=O)([O-])OC1CC[N+](C)(C)CC1 [Perifosine] + Cc1cc(Nc2cc(N3CCN(C)CC3)nc(/C=C/c3ccccc3)n2)n[nH]1 [ENMD2076] (first compound 0.4 µM, partner dose 0.04 µM) | 104 |
| O=C(Nc1cc(C(F)(F)F)cc(C(F)(F)F)c1)c1cc(Cl)ccc1O + Cn1cnc2c(F)c(Nc3ccc(Br)cc3Cl)c(C(=O)NOCCO)cc21 [selumetinib] (first compound 0.016 µM, partner dose 0.015 µM) | 81.2 |
| Cc1ccc(Nc2nccc(N(C)c3ccc4c(C)n(C)nc4c3)n2)cc1S(N)(=O)=O [Pazopanib] + CC(=O)c1c(C)c2cnc(Nc3ccc(N4CCNCC4)cn3)nc2n(C2CCCC2)c1=O [palbociclib] (first compound 0.4 µM, partner dose 0.04 µM) | 115 |
| CC[C@]1(O)C[C@H]2CN(CCc3c([nH]c4ccccc34)[C@@](C(=O)OC)(c3cc4c(cc3OC)N(C=O)[C@H]3[C@@](O)(C(=O)OC)[C@H](OC(C)=O)[C@]5(CC)C=CCN6CC[C@]43[C@@H]65)C2)C1 [vincristine] + C#Cc1cccc(Nc2ncnc3cc(OCCOC)c(OCCOC)cc23)c1 [erlotinib] (first compound 0.0001 µM, partner dose 0.8 µM) | 216 |
| N#CC[C@H](C1CCCC1)n1cc(-c2ncnc3[nH]ccc23)cn1 [ruxolitinib] + O=C(O)[C@@H]1[O][Sb](=[O])([O][Sb]2(=[O])[O][C@H]([C@H](O)CO)[C@H](O)[C@H](C(=O)O)[O]2)[O][C@H]([C@H](O)CO)[C@@H]1O [stibogluconate] (first compound 1 µM, partner dose 2 µM) | 95.9 |
| Cc1cn(-c2cc(NC(=O)c3ccc(C)c(Nc4nccc(-c5cccnc5)n4)c3)cc(C(F)(F)F)c2)cn1 [nilotinib] + CC(=O)O[C@@]12CO[C@@H]1C[C@H](O)[C@@]1(C)C(=O)[C@H](O)C3=C(C)[C@@H](OC(=O)[C@H](O)[C@@H](NC(=O)OC(C)(C)C)c4ccccc4)C[C@@](O)([C@@H](OC(=O)c4ccccc4)[C@H]21)C3(C)C [Docetaxel] (first compound 0.2 µM, partner dose 0.0001 µM) | 278 |
| COc1cc([C@@H]2c3cc4c(cc3[C@@H](O[C@@H]3O[C@@H]5CO[C@@H](C)O[C@H]5[C@H](O)[C@H]3O)[C@H]3COC(=O)[C@H]23)OCO4)cc(OC)c1O [etoposide] + Cc1nc(Nc2ncc(C(=O)Nc3c(C)cccc3Cl)s2)cc(N2CCN(CCO)CC2)n1 [dasatanib] (first compound 0.02 µM, partner dose 0.004 µM) | 79.4 |
| CC[C@]1(O)C[C@H]2CN(CCc3c([nH]c4ccccc34)[C@@](C(=O)OC)(c3cc4c(cc3OC)N(C=O)[C@H]3[C@@](O)(C(=O)OC)[C@H](OC(C)=O)[C@]5(CC)C=CCN6CC[C@]43[C@@H]65)C2)C1 [vincristine] + Cc1ccc(Nc2nccc(N(C)c3ccc4c(C)n(C)nc4c3)n2)cc1S(N)(=O)=O [Pazopanib] (first compound 0.0001 µM, partner dose 0.4 µM) | 187 |
| O=C(/C=C/c1cccnc1)NCCCCC1CCN(C(=O)c2ccccc2)CC1 + Cn1c(=O)n(-c2ccc(C(C)(C)C#N)cc2)c2c3cc(-c4cnc5ccccc5c4)ccc3ncc21 [NVP-BEZ235] (first compound 0.01 µM, partner dose 0.004 µM) | 96.4 |
| O=C(/C=C/c1cccnc1)NCCCCC1CCN(C(=O)c2ccccc2)CC1 + Cc1cn(-c2cc(NC(=O)c3ccc(C)c(Nc4nccc(-c5cccnc5)n4)c3)cc(C(F)(F)F)c2)cn1 [nilotinib] (first compound 0.01 µM, partner dose 0.2 µM) | 108 |

2 entries from above in another layout.
Compound	cleaved PARP positive nuclei fraction [%]
N#CC[C@H](C1CCCC1)n1cc(-c2ncnc3[nH]ccc23)cn1 [ruxolitinib] + O=C(O)[C@@H]1[O][Sb](=[O])([O][Sb]2(=[O])[O][C@H]([C@H](O)CO)[C@H](O)[C@H](C(=O)O)[O]2)[O][C@H]([C@H](O)CO)[C@@H]1O [stibogluconate] (first compound 1 µM, partner dose 2 µM)	95.9
CC[C@]1(O)C[C@H]2CN(CCc3c([nH]c4ccccc34)[C@@](C(=O)OC)(c3cc4c(cc3OC)N(C=O)[C@H]3[C@@](O)(C(=O)OC)[C@H](OC(C)=O)[C@]5(CC)C=CCN6CC[C@]43[C@@H]65)C2)C1 [vincristine] + Cc1ccc(Nc2nccc(N(C)c3ccc4c(C)n(C)nc4c3)n2)cc1S(N)(=O)=O [Pazopanib] (first compound 0.0001 µM, partner dose 0.4 µM)	187
